From article PMC7862700 come the findings set out here.

This is one part of the list. The exact form of the protein is not confirmed.

This assay addresses T1, ELF2 (UniProt Q15723).
T1 sequence: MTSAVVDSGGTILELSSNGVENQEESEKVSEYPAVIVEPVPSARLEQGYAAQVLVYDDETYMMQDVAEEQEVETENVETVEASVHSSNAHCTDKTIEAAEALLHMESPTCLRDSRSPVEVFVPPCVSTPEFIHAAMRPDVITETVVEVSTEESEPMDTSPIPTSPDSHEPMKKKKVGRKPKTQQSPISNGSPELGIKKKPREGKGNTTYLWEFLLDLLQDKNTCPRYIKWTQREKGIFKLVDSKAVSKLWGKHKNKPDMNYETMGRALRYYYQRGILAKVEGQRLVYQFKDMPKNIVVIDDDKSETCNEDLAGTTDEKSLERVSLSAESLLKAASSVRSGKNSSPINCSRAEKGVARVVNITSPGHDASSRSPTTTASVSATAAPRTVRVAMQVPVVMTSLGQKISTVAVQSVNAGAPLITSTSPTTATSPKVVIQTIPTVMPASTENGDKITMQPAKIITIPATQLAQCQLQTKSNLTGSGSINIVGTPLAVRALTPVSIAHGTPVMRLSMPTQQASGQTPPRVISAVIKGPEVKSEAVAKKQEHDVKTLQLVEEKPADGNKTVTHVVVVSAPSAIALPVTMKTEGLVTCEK
Description: DAPPL (digital affinity profiling via proximity ligation, sequencing). The conditions noted are these: 10 mM Tris-HCl pH 7.5, 50 mM NaCl, 1 mM DTT, 4% glycerol, room temperature, 30 min; GST-TFs on glutathione beads, 16-mer random dsDNA library, 0.1% …; high values mean tight binding; double strand, one strand shown; scale: fold enrichment (6-mer frequency, TF over GST control).
TGGACG showed a binding signal of 0.82. Take AGTAGA: the binding signal worked out at 0.816. GGTGAT: the binding signal amounted to 0.755. For the sequence CAGTGA, the binding signal was 0.326. As for GGAGCG, the binding signal was 0.387. For the sequence TAGGGG, the binding signal came out at 0.783. The figure for GAGGCT is 0.617; for ACGTAG it is 0.738. For AGGCGT, the binding signal came to 0.501. The figure for GTGAGG is 0.254. GTCTGC returned a binding signal of 0.835.

For GGAGGG, the binding signal was 0.299. GTCATG displayed a binding signal of 0.828. AAGAGA came in with a binding signal of 0.816. For CAGAGT, the binding signal came out at 0.614. The figure for CACGGG is 0.788. GTTGTG had a binding signal of 0.88.

On to AAACGT, for which the binding signal came to 0.937. The figure for GCTGTC is 0.852; for CCATCG it is 0.782; for ACCGAG it is 0.721. Consider GGAGCC, for which the binding signal amounted to 0.311. The figure for GGGGCG is 0.575. For the sequence AGCCAG, the binding signal amounted to 0.465. With TGCGGG the figure was 0.781; with GCACGG, 0.821.

In turn, ACGTGT registered a binding signal of 0.61.

The sequence GAGTTC returned a binding signal of 0.771.

For GTGAGC, the binding signal was 0.378.

With GTGTGT, the binding signal was found to be 0.505. With CTAGTC the figure was 0.696; with TAGCCA, 0.796.

For GGGCAA, the binding signal was determined as 0.861. Turning to CAGGTA, the binding signal stood at 0.787. The sequence CACCAG registered a binding signal of 0.691. The figure for CGTGAG is 0.123; for TCCAGG it is 0.928. AGTCAA: the binding signal was 0.631. The sequence GGGGTA had a binding signal of 0.718.
